The text below walks through data of patent US6365711.

Chains of the proteins cited; added tags and fusions are not shown. Lines headed by an entry give the natural chain unless they say otherwise; changes in a name come on top.
UniProt O70436: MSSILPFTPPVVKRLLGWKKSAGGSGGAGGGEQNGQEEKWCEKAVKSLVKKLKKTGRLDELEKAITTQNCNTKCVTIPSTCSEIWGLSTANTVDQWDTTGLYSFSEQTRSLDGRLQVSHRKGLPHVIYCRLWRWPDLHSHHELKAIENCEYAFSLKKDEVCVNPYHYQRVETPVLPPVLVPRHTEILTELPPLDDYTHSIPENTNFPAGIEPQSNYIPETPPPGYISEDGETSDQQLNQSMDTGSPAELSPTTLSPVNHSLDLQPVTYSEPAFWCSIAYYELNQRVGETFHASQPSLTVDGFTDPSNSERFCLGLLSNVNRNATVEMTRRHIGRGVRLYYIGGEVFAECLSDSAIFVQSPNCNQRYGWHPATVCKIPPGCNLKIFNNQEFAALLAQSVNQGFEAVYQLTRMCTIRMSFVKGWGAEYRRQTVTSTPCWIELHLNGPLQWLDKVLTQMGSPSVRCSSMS

For experiment [1], the target named is Myc-tagged Smad2 (Xenopus). In words: Myc-tagged FAST-1 deletion mutant co-expressed with tagged Smad and activin in Xenopus embryos (summarised in FIG. 6A).
Experiment [2] concerns the target Xenopus Smad2 MH2 domain (aa248 to aa467) GAL4 activation domain fusion (Xenopus) (UniProt O70436). In words: yeast two-hybrid.
The target is the same in experiment [3]. Briefly: yeast two-hybrid, X-gal colony lift filter assay (color intensity).

No constants are given. Whether binding was seen depends on the method and setting. Some binding calls cover weakened binding; strength is not graded here. Where a sequence is shown, tags or fusion partners need not be part of it.

B1: Myc-tagged Δ506-534 (protein, not shown: small tags and cut ends)
chain: YREGGTWSPDRGSMYGLSPGTHEGSCTHTHEGPKDSMAGDQTRSRKSKKKNYHRYNKPPYSYLAMIALVIQNSPEKRLKLSQILKEVSTLFPFFNGDYMGWKDSIRHNLSSSDCFKKILKDPGKPQAKGNFWTVDVSRIPLDAMKLQNTALTRGGSDYFVQDLAPYILHNYKYEHNAGAYGHQMPPSHARSLSLAEDSQQTNTGGKLNTSFMIDSLLHDLQEVDLPDASRNLENQRISPAVAMNNMWSSAPLLYTHSKPTRNARSPGLSTIHSTYSSSSSSISTISPVGFQKEQEKSGRQTQRVGHPIKRSREDDDCSTTSSDPDTGNYSPIEPPKKMPLLSLDLPTSYTKSVAPNVVAPPSVLPFFHFPRFTYYNYGPSPYMTPPYWGFPHPTNSGGDSPRGPQSPLDLDNMLRAMPPNKSVFDVLTSHPGDLVHPSFLSQCLG
B1: the binding result in experiment [1] is “binds”.

B2: FAST-1 (aa366-518) GAL4 DNA-binding domain fusion (protein, not shown: small tags and cut ends)
chain: HPIKRSREDDDCSTTSSDPDTGNYSPIEPPKKMPLLSLDLPTSYTKSVAPNVVAPPSVLPFFHFPRFTYYNYGPSPYMTPPYWGFPHPTNSGGDSPRGPQSPLDLDNMLRAMPPNKSVFDVLTSHPGDLVHPSFLSQCLGSSGSPYPSRQGLM
B2: the binding result in experiment [2] and in experiment [3] was “binds” in each case.

B3: Myc-tagged Δ1-366 FAST-1 (protein, not shown: small tags and cut ends)
chain: HPIKRSREDDDCSTTSSDPDTGNYSPIEPPKKMPLLSLDLPTSYTKSVAPNVVAPPSVLPFFHFPRFTYYNYGPSPYMTPPYWGFPHPTNSGGDSPRGPQSPLDLDNMLRAMPPNKSVFDVLTSHPGDLVHPSFLSQCLGSSGSPYPSRQGLMYRRRPPGLTWSGHSMK
As to B3, the binding entry in experiment [1] is given as “binds”.
